The whole screen tested about 31,000 sequences, of which about 1,400 (4.5%) were called active.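 Rule for the calls: active = median seed-adjusted z-score above 1 or below -1; inactive = the rest.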 This is one part of the list.
assay: Novel Modifiers of Survival Motor Neuron (SMN) Protein: Gene Identification via Genome-wide siRNA Screen; conditions: HEK293T SMN2-luciferase reporter, siRNA knockdown, 72 h; actives lie on both sides;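 note: luminescence tracks full-length SMN protein made from the SMN2 reporter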
How it was run: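 HEK293T cells stably carrying an SMN2 promoter/splicing cassette–luciferase reporter were reverse-transfected with 1 pmol siRNA per well (druggable-genome library, 3 siRNAs per gene) and grown 72 h at 37 °C. Luminescence, normalized to negative-control siRNA and log10-transformed, was scored as MAD.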

Row | Sequence | median seed-adjusted z-score
1 | GAGUGGUCCUAGUCAAAGATT against CHRM5 | inactive: -0.553
2 | GGCAGAGUGUGACAUCAUUTT against PADI3 | inactive: 0.147
3 | GGAACUUUCCGGAAUGACATT against TNFRSF10A | inactive: 0.129
4 | CUACUACAGUCACCGAGUATT against LAMB3 | inactive: -0.0106
5 | GAACCCACCUAAAUGUUGATT against KLF10 | inactive: 0.616
6 | GUGGUGCAAUCACUGUUUATT against ZNF497 | inactive: -0.33
7 | CAACUACAGUUGCUAGCUATT against ZFR | inactive: -0.048
8 | CCUCUACUGUUGCCGUGAATT against AHCYL2 | inactive: 0.415
9 | GGGUUUAUAGCAGACCUAATT against ZDHHC17 | inactive: 0.526
10 | GAUCCUAGCUCGCUGCGAATT against GLI1 | inactive: -0.347
11 | GCGAUACUAUAAAAAUUGATT against NRP1 | inactive: 0.561
12 | GAUCGGCUACAUUACGAAATT against NFRKB | inactive: 0.787
13 | GGUGGAACCGUAACCCUGATT against AGER | inactive: 0.506
14 | GAAACGGAGUGAAGACCGGTT against P2RX5 | inactive: 0.313
15 | AGAUGUGACCUUUCCCUCUTT against KLK7 | inactive: 0
16 | GGGCCGAACUGAAAUACGATT against FGD2 | inactive: 0.0293
17 | GCUCAGUUCUACGAAAUCATT against KCTD14 | inactive: -0.166
18 | CGACCACAAAUCCUCCAAATT against SCYL1 | inactive: 0.0409
19 | GUCUGUUACUUUUCGAAUUTT against RAD1 | inactive: -0.71
20 | GCAAUGAACACCAUCCGAATT against KEAP1 | inactive: 0.207
21 | AGAGAUAUUUGUAGAGCAATT against LIN7C | inactive: 0.021
22 | GCUACUUCUGGAACAGUAUTT against METTL5 | inactive: 0.221
23 | GAGUCACGGUUGAAGGACATT against SPTAN1 | inactive: -0.233

4 entries from above, as labelled records.
GUGGUGCAAUCACUGUUUATT against ZNF497
  median seed-adjusted z-score: inactive: -0.33
CAACUACAGUUGCUAGCUATT against ZFR
  median seed-adjusted z-score: inactive: -0.048
GAUCCUAGCUCGCUGCGAATT against GLI1
  median seed-adjusted z-score: inactive: -0.347
GAUCGGCUACAUUACGAAATT against NFRKB
  median seed-adjusted z-score: inactive: 0.787

(cont.)

Row | Sequence | median seed-adjusted z-score
24 | AACUACUUCUGGAUGGUCATT against SPHK1 | inactive: -0.249
25 | GGAACUAACUUACCCAGCUTT against SLC25A22 | inactive: -0.444
26 | GCUAGGAGAUGUACGUGUATT against PDE7A | inactive: 0.861
27 | CCGGAGCUAUGACAACAUUTT against LGI2 | inactive: 0
28 | GGAUCCUUCUAUACGCAUATT against SLC4A7 | inactive: 0
29 | GCAGUUUAAUGGAUUAAGUTT against NSUN6 | inactive: 0.428
30 | GAAAGAAAUCAACUGAUGATT against FBP1 | inactive: -0.221
31 | CCAUUUAGGUAAGGUAGUATT against PAM | inactive: 0
32 | GACUGAACAUGCACAUGAATT against APP | inactive: 0.0204
33 | UCAUGAUGGUGGACAGUUATT against SPRYD3 | inactive: 0.207
34 | CCAGGGAAAUGUGAUUGUUTT against NHLRC1 | inactive: -0.582
35 | AGUAAUAGUUCAAACCUUUTT against ZNF664 | active: 1.08
36 | GGGACCUACAUGUUACUAATT against AGXT2 | inactive: 0.17
37 | CCAGAUCGCUACUAUAUUATT against STK24 | inactive: 0.0531
38 | GCAUCGCAAUCAUCGUGGATT against PRPSAP1 | inactive: 0.224
39 | CCUUUGAGAUGGAAGCCUATT against ACY3 | inactive: 0.568
40 | CAGUAGCCGUGUUAACGAATT against MERTK | inactive: 0.369
41 | CGAUCGUGGUGUGCUAAAATT against NMT1 | inactive: 0.18
42 | CCAGAGAUCUUGAACACCATT against TRIB2 | inactive: 0
43 | CCGUGAAAAAGUAUCAUGATT against PDGFD | inactive: 0.366
44 | GGAUGAGUUUAGAAACUUUTT against PRKCH | inactive: 0.761
45 | GAAUAGUGAUAGGAGUUUUTT against TAAR2 | inactive: 0.137
46 | GGACAGCAUGCGAACCUAUTT against TJP3 | inactive: -0.183

Row | Sequence | median seed-adjusted z-score
47 | CAGUAUCCACAGAUCCUGATT against COPB2 | inactive: -0.61
48 | UGGUGUUUUGGGUUUCAAATT against ERAS | inactive: 0.289
49 | GAAGGGUUAUCGUCGGGAATT against SLC6A6 | inactive: 0.0448
50 | CCUGCGUCGUGGAGAACAATT against FGFR3 | inactive: -0.133
51 | GGAAGCUAUUGGACAUGCATT against PSMA4 | inactive: 0
52 | CCCUCACCGUGCAUGAGAATT against ZNF74 | active: 1.17
53 | GUUUGACCGUCUGAAGAAATT against 6-Sep | inactive: -0.732
54 | CAGUCGGAGCUAAUGGUGATT against AGER | inactive: 0.506
55 | AGUUCUCGGAGGUGCUUAATT against CKB | inactive: -0.236
56 | GCAGAAUACUUCUAUGAAUTT against WIF1 | inactive: -0.521
57 | GCAUUAACCUGGGAGCGAUTT against SLC15A4 | inactive: -0.29
58 | GGCCUCCUAUUCUAAGAAATT against CETP | inactive: 0
59 | UCUCAUACCUUAUUAAACATT against ZNF100 | inactive: -0.209
60 | CCAUGAGAAUGACACGAUATT against VPS26B | inactive: -0.038
61 | GGAUGACAGGUACCAAUGUTT against GLYCTK | inactive: 0.0328
62 | CACCGGAGGUUUAUCACAATT against AMDHD2 | inactive: -0.0707
63 | CGACCAUCCUAACAUCAUUTT against EPHB1 | inactive: -0.0232
64 | GGAGAGUUGAUGAACCAGATT against GALK2 | inactive: 0
65 | GAGUGGAUGUUCAACCGGATT against PCK1 | inactive: -0.401
66 | GAAAGAUCCCUAUGGAAAATT against CAMK2G | inactive: -0.107
67 | GCAGAUUACUGUGCAAGUATT against SDR16C5 | inactive: -0.0558
68 | CUGCCUUACUAACUCCUUATT against ALPL | inactive: -0.229
69 | GGUCUUAGAUGGUACGCGUTT against ADAMTSL1 | inactive: -0.107

— PubChem BioAssay AID1347426 (Functional Genomics Laboratory (NCATS/FGL), 2020)
